Data taken from PubChem BioAssay (EPA / NIEHS).
The shares of active, inactive and inconclusive entries below differ from those in the screen. For some assays here: Potencies of inconclusive entries are doubtful fits and often do not repeat. Activity calls are given as the source filed them. How the source made its calls, unless noted: active means hit-call score of the fitted dose curve at least 0.9, where 1 is the maximum; inconclusive means response in the unintended direction; inactive means score below 0.9.

Sequences of proteins named here, by UniProt entry; tags and fusion partners are left off. A change or cut given only in a name is not applied to a line headed by its entry.
UniProt Q9UNQ0: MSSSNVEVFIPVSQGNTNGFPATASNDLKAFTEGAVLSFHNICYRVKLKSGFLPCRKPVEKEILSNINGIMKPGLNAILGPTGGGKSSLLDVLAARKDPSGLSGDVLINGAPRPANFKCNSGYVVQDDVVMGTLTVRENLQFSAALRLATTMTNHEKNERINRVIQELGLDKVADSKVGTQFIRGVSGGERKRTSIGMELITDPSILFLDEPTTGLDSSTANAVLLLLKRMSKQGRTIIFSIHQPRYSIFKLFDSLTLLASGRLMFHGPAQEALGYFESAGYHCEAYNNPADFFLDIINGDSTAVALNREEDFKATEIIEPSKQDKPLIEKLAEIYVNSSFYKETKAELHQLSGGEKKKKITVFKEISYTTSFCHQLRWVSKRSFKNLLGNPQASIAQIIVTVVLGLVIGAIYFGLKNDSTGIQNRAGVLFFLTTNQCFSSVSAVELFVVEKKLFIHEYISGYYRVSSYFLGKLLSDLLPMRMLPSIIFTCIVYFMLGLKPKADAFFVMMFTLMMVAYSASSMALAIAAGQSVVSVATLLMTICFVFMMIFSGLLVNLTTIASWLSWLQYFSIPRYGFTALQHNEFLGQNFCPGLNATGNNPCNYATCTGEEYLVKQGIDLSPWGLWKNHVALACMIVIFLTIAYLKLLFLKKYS
UniProt P33261, whole entry, looked up: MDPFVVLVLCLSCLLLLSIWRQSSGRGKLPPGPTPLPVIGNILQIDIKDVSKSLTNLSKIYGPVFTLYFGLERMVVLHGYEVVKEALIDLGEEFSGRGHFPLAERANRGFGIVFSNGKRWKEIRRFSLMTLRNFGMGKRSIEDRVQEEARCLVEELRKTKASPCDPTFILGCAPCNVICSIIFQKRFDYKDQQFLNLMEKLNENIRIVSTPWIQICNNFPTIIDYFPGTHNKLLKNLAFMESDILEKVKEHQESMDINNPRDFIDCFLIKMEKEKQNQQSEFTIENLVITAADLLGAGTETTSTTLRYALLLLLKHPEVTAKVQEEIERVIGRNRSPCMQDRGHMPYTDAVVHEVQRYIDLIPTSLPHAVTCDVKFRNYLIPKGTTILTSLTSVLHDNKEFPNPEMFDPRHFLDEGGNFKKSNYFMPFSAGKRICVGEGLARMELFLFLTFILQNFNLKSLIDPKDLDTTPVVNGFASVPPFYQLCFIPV
UniProt P04406: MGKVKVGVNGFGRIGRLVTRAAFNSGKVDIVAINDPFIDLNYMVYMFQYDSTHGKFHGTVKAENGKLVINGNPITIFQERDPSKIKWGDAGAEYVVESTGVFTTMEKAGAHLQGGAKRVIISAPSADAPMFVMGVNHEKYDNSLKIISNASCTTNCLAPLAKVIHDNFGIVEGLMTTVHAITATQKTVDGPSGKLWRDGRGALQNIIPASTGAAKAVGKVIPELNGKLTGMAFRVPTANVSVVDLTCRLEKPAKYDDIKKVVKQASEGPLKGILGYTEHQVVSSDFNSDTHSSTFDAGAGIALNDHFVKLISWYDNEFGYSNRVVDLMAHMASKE
UniProt P20813: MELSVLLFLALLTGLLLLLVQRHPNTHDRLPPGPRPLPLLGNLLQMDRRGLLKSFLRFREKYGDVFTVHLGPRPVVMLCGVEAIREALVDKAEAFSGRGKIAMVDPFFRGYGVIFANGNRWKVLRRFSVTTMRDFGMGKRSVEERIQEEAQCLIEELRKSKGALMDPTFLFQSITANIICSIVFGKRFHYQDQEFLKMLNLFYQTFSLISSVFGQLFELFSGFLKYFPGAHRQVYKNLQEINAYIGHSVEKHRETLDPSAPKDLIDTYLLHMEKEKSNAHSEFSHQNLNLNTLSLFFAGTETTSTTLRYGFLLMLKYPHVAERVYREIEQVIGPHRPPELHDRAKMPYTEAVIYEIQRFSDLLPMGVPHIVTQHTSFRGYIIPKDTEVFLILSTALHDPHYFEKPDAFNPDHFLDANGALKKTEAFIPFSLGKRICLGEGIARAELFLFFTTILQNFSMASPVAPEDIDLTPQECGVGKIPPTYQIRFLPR
UniProt P08684, whole entry, looked up: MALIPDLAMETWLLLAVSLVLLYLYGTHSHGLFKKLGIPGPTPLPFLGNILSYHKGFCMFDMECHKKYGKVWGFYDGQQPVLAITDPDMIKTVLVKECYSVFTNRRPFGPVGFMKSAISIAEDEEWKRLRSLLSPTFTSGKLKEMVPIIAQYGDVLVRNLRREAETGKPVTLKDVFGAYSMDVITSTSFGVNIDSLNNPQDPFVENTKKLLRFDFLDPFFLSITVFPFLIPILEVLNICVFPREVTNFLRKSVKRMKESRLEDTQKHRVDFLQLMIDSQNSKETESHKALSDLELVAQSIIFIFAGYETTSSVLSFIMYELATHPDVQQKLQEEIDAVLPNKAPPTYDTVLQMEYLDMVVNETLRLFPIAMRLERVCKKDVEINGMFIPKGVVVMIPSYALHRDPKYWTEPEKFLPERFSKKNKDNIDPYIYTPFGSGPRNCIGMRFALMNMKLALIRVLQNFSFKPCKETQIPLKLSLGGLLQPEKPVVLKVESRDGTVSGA

Key:
[1] = read-out: sulfotransferase (SULT2A), SULT2A1 (gene 6822); assay: CLD_SULT2A_6hr: CellzDirect (CLD) Gene Expression Assay for sulfotransferase (SULT2A) at 6 hours (AID 2283669);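 further: hits raise transcript level above the DMSO vehicle baseline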
Method in brief: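 Measured 6 h after dosing, SULT2A1 mRNA in human hepatocyte lysates was quantified by S1 nuclease protection with chemiluminescent detection. Increases fitted against 0.2% DMSO vehicle baseline; phase-contrast cytotoxicity recorded yes/no.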

[2] = read-out: HMG-CoA synthase (HMGCS2), HMGCS2 (gene 3158); assay: CLD_HMGCS2_6hr: CellzDirect (CLD) Gene Expression Assay for HMG-CoA synthase (HMGCS2) at 6 hours (AID 2283682);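 further: actives raise HMGCS2 transcript above the 0.2% DMSO vehicle baseline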
Method in brief: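 HMGCS2 transcript induction read by quantitative nuclease protection with chemiluminescence, 6 h after dosing of primary human hepatocytes. Baseline was 0.2% DMSO vehicle; phase-contrast morphology gave a yes/no cytotoxicity annotation.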

[3] = read-out: xenobiotic metabolism (CYP1A2), CYP1A2 (gene 1544); assay: CLD_CYP1A2_24hr: CellzDirect (CLD) Gene Expression Assay for xenobiotic metabolism (CYP1A2) at 24 hours (AID 2283683)
Method in brief: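 CYP1A2 mRNA induction measured by quantitative nuclease protection (chemiluminescent) in human primary hepatocytes 24 h after multi-concentration chemical dosing with daily fresh solutions. DMSO (0.2%) baseline; positive-direction fitting; morphology-based cytotoxicity noted.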

[4] = read-out: Broad substrate specificity ATP-binding cassette transporter ABCG2 (Homo sapiens) (UniProt Q9UNQ0); assay: CLD_ABCG2_24hr: CellzDirect (CLD) Gene Expression Assay for ABC Transporter (ABCG2) at 24 hours (AID 2283685);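 on AC50: AC50 is for induction meaning signal gain over DMSO vehicle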
Method in brief: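 ABCG2 mRNA induction, read as gain of chemiluminescent signal over 0.2% DMSO, was measured by quantitative nuclease protection at 24 h. Cultured human liver hepatocytes were given fresh dosing solutions of test chemicals at several concentrations each day.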

[5] = read-out: Cytochrome P450 2C19 (Homo sapiens) (UniProt P33261); assay: CLD_CYP2C19_24hr: CellzDirect (CLD) Gene Expression Assay for xenobiotic metabolism (CYP2C19) at 24 hours (AID 2283687)
Method in brief: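 CYP2C19 mRNA was quantified by qNPA chemiluminescence after 24 h of daily dosing of cultured human primary hepatocytes from two donors; vehicle was 0.2% DMSO, and increases over DMSO baseline were fitted.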

[6] = read-out: HMG-CoA synthase (HMGCS2), HMGCS2 (gene 3158); assay: CLD_HMGCS2_24hr: CellzDirect (CLD) Gene Expression Assay for HMG-CoA synthase (HMGCS2) at 24 hours (AID 2283691)
Method in brief: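 qNPA with S1 nuclease digestion and chemiluminescent detection gave HMGCS2 transcript levels, fitted upward against 0.2% DMSO vehicle. Cultured human hepatocytes (two donors) received fresh compound daily and were harvested at 24 h; phase-contrast morphology flagged cytotoxicity.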

[7] = read-out: Glyceraldehyde-3-phosphate dehydrogenase (Homo sapiens) (UniProt P04406); assay: CLD_GAPDH_24hr: CellzDirect (CLD) Gene Expression Assay for Baseline Control (Glyceraldehyde 3-phosphate dehydrogenase) at 24 hours (AID 2283692)
Method in brief: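 GAPDH baseline-control readout: qNPA chemiluminescent mRNA signal in human primary hepatocytes harvested 24 h after daily dosing, normalised to 0.2% DMSO with positive fitting direction; cytotoxicity annotated by phase-contrast morphology.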

[8] = read-out: alkyl and aryl transferase (GSTA2), GSTA2 (gene 2939); assay: CLD_GSTA2_24hr: CellzDirect (CLD) Gene Expression Assay for alkyl and aryl transferase (GSTA2) at 24 hours (AID 2283693)
Method in brief: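 GSTA2 transcript levels were quantified by quantitative nuclease protection assay in primary human hepatocytes 24 h after daily dosing with fresh solutions at multiple concentrations; 0.2% DMSO vehicle as baseline, cytotoxicity flagged morphologically.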

[9] = CLD_ACTIN_24hr: CellzDirect (CLD) Gene Expression Assay for Baseline Control (Actin) at 24 hours (AID 2283670)
Method in brief: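 This 24 h qNPA (S1 nuclease protection, chemiluminescence) actin transcript readout in cultured human liver primary cells serves as baseline control. Signal is fitted upward relative to 0.2% DMSO; chemicals tested at multiple concentrations across two donor preparations.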

[10] = read-out: xenobiotic metabolism (CYP1A1), CYP1A1 (gene 1543); assay: CLD_CYP1A1_24hr: CellzDirect (CLD) Gene Expression Assay for xenobiotic metabolism (CYP1A1) at 24 hours (AID 2283673);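 further: CYP1A1 mRNA level by quantitative nuclease protection with chemiluminescence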
Method in brief: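 Transcript levels were read at 24 h by qNPA chemiluminescence in human liver primary cells. Cells got daily fresh dosing at multiple concentrations (vehicle 0.2% DMSO). Induction fitted upward against DMSO; phase-contrast cytotoxicity annotated.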

[11] = read-out: ABC Transporter (ABCB11), ABCB11 (gene 8647); assay: CLD_ABCB11_24hr: CellzDirect (CLD) Gene Expression Assay for ABC Transporter (ABCB11) at 24 hours (AID 2283674; active means hit-call score of the fitted dose curve at least 0.9, where 1 is the maximum; inactive means score below 0.9)
Method in brief: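 ABCB11 transcript was quantified by qNPA chemiluminescence in cultured human liver hepatocytes 24 hours after dosing. Fresh dosing solutions were applied on consecutive days, against a 0.2% DMSO vehicle. Cytotoxicity was noted by phase-contrast morphology.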

[12] = read-out: ABC Transporter (ABCB11), ABCB11 (gene 8647); assay: CLD_ABCB11_6hr: CellzDirect (CLD) Gene Expression Assay for ABC Transporter (ABCB11) at 6 hours (AID 2283675);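 further: hits raise ABCB11 mRNA level so AC50 marks induction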
Method in brief: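 Read-out was ABCB11 mRNA gain of signal by quantitative nuclease protection assay, relative to 0.2% DMSO vehicle, 6 h post-dose. Cells were primary human hepatocytes from two donors, treated across multiple concentrations; phase-contrast cytotoxicity noted yes/no.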

[13] = read-out: Cytochrome P450 2B6 (Homo sapiens) (UniProt P20813); assay: CLD_CYP2B6_6hr: CellzDirect (CLD) Gene Expression Assay for xenobiotic metabolism (CYP2B6) at 6 hours (AID 2283677);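 further: actives raise CYP2B6 transcript above DMSO baseline so AC50 marks an inducer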
Method in brief: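 CYP2B6 transcript levels, read by chemiluminescent qNPA, were fitted for increase versus DMSO baseline; cultured human liver hepatocytes from two donor preparations were harvested 6 h after exposure to test chemicals at multiple concentrations.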

[14] = read-out: Glyceraldehyde-3-phosphate dehydrogenase (Homo sapiens) (UniProt P04406); assay: CLD_GAPDH_6hr: CellzDirect (CLD) Gene Expression Assay for Baseline Control (Glyceraldehyde 3-phosphate dehydrogenase) at 6 hours (AID 2283681)
Method in brief: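 GAPDH baseline-control readout from qNPA (S1 nuclease digestion, probe hybridization, chemiluminescence) in lysates of cultured human hepatocytes harvested 6 h post-dosing. Chemicals tested at multiple concentrations versus 0.2% DMSO vehicle; microscopy-based cytotoxicity flagged yes/no.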

[15] = read-out: ABC Transporter (ABCB1), ABCB1 (gene 5243); assay: CLD_ABCB1_24hr: CellzDirect (CLD) Gene Expression Assay for ABC Transporter (ABCB1) at 24 hours (AID 2283684);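 on AC50: potency for increase in ABCB1 mRNA relative to DMSO vehicle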
Method in brief: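 ABCB1 mRNA induction versus 0.2% DMSO vehicle was read by qNPA chemiluminescence at 24 h. Cultured human hepatocytes from two donor preparations received daily fresh dosing, and phase-contrast cytotoxicity calls were annotated alongside the data.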

[16] = CLD_ACTIN_6hr: CellzDirect (CLD) Gene Expression Assay for Baseline Control (Actin) at 6 hours (AID 2283676)
Method in brief: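 Baseline actin transcript level measured by qNPA (S1 nuclease protection, chemiluminescence) in human hepatocyte cultures 6 h after chemical exposure; 0.2% DMSO vehicle as reference, cytotoxicity noted from morphology.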

[17] = read-out: glucuronosyltransferase (UGT1A1), UGT1A1 (gene 54658); assay: CLD_UGT1A1_6hr: CellzDirect (CLD) Gene Expression Assay for glucuronosyltransferase (UGT1A1) at 6 hours (AID 2283672)
Method in brief: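 UGT1A1 mRNA induction, read by quantitative nuclease protection assay, 6 h after dosing primary human hepatocytes (two donors, 0.2% DMSO vehicle). Gain of signal fitted relative to vehicle.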

[18] = read-out: Cytochrome P450 3A4 (Homo sapiens) (UniProt P08684); assay: CLD_CYP3A4_6hr: CellzDirect (CLD) Gene Expression Assay for xenobiotic metabolism (CYP3A4) at 6 hours (AID 2283680)
Method in brief: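 CYP3A4 mRNA induction, 6 h after dosing of cultured primary human hepatocytes from two donors, read by quantitative nuclease protection (qNPA, chemiluminescence). Vehicle 0.2% DMSO as baseline; morphology-based cytotoxicity annotated yes/no.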

[19] = read-out: Cytochrome P450 2B6 (Homo sapiens) (UniProt P20813); assay: CLD_CYP2B6_24hr: CellzDirect (CLD) Gene Expression Assay for xenobiotic metabolism (CYP2B6) at 24 hours (AID 2283686)
Method in brief: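 qNPA chemiluminescent measurement of mRNA at 24 hours in human primary hepatocyte cultures from two donor preparations, with daily fresh dosing and 0.2% DMSO vehicle as baseline. Morphology-based cytotoxicity flagged yes/no.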

[20] = read-out: Cytochrome P450 3A4 (Homo sapiens) (UniProt P08684); assay: CLD_CYP3A4_24hr: CellzDirect (CLD) Gene Expression Assay for xenobiotic metabolism (CYP3A4) at 24 hours (AID 2283689)
Method in brief: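 CYP3A4 mRNA induction read by quantitative nuclease protection (chemiluminescence) 24 hr after dosing. Cultured human hepatocytes (two donor preparations) treated daily, vehicle 0.2% DMSO; phase-contrast morphology annotates cytotoxicity.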

Measured: AC50

COc1nc(C)nc(NC(=O)NS(=O)(=O)c2ccccc2OCCCl)n1
inconclusive: [2] 0.000795 µM | [4] 20 µM | [6] 20 µM | [7] 0.103 µM
inactive: [1] | [3] | [5] | [8]

CCOC(=O)C(C)Oc1ccc(Oc2cnc3cc(Cl)ccc3n2)cc1 (stereo not drawn)
inconclusive: [1] 3.97 µM | [9] 0.00667 µM | [10] 20 µM | [12] 20 µM | [14] 20 µM | [2] 20 µM | [4] 0.0004 µM | [5] 0.00576 µM | [7] 20 µM
inactive: [11] | [13] | [15] | [6]

CCCCCOC(=O)COc1cc(N2C(=O)C3=C(CCCC3)C2=O)c(F)cc1Cl
inactive: [9]
inconclusive: [16] 20 µM | [2] 20 µM | [4] 20 µM | [5] 20 µM | [6] 20 µM

CCCCOC(=O)C(C)Oc1ccc(Oc2ccc(C(F)(F)F)cn2)cc1 (stereo not drawn)
inactive: [1] | [9] | [13] | [14] | [6]
inconclusive: [10] 2 µM | [16] 20 µM | [3] 2 µM | [15] 36.9 µM | [7] 20 µM

CCCOC(=O)c1ccc(C(=O)OCCC)nc1
inconclusive: [17] 1.89 µM | [10] 0.0004 µM | [13] 0.00549 µM | [18] 20 µM | [3] 0.000175 µM | [19] 1.33 µM | [20] 2.18 µM
inactive: [11] | [14] | [4] | [6] | [7] | [8]

CCCCOC(=O)[C@@H](C)Oc1ccc(Oc2ccc(C(F)(F)F)cn2)cc1
inactive: [12] | [18] | [2] | [15] | [20] | [6] | [7]
inconclusive: [14] 20 µM | [5] 0.00685 µM | [8] 20 µM

O=C(O)C1(C(=O)Nc2ccc(Cl)cc2Cl)CC1
inconclusive: [17] 0.002 µM | [12] 0.0004 µM | [13] 20 µM | [15] 20 µM | [5] 0.00376 µM | [7] 31.2 µM | [8] 0.00447 µM
active: [6] 34.9 µM
inactive: [9] | [14] | [4] | [20]

c1ccc2[nH]c(-c3cscn3)nc2c1
inconclusive: [1] 1.89 µM | [9] 3.97 µM | [12] 20 µM | [2] 0.000389 µM | [15] 2.7 µM | [4] 11.2 µM | [5] 2.12 µM | [6] 6.19 µM | [7] 6.17 µM | [8] 6.27 µM
inactive: [19]

Pulled by compound from the entries so far, two records:
CCCCOC(=O)[C@@H](C)Oc1ccc(Oc2ccc(C(F)(F)F)cn2)cc1
inactive: [12] | [18] | [2] | [15] | [20] | [6] | [7]
inconclusive: [14] 20 µM | [5] 0.00685 µM | [8] 20 µM

CCCCOC(=O)C(C)Oc1ccc(Oc2ccc(C(F)(F)F)cn2)cc1 (stereo not drawn)
inactive: [1] | [9] | [13] | [14] | [6]
inconclusive: [10] 2 µM | [16] 20 µM | [3] 2 µM | [15] 36.9 µM | [7] 20 µM
